# Measured values reported in PubChem BioAssay AID504834 (National Center for Advancing Translational Sciences (NCATS), 2011).
# Screen size: about 320,000 compounds; about 22,000 (6.9%) were called active. The shares of active, inactive and inconclusive entries below differ from those in the screen. Calls come from the whole dose curve; as a rule, active = well fitted inhibition curve with a large enough effect; inconclusive = small, poorly fitted or top-dose-only effect, or another doubt; inactive = no such curve, though single readings can be large or run the other way. A potency beside an inconclusive call is a rough fit, not a confirmed value.
# Test: Primary qHTS for delayed death inhibitors of the malarial parasite plastid, 96 hour incubation
# Conditions: P. falciparum luciferase reporter growth; series mostly up to 28.7 µM; activity change, negative = inhibition: at the top concentration
# In short: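 Compounds incubated with erythrocytes infected by luciferase-expressing P. falciparum (2% hematocrit, 0.05% parasitemia final) for 96 hours, 37 C in 5% CO2. Growth inhibition scored as decreased luciferase luminescence.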
# % is set by controls: 0 for no effect and ±100 for the full control effect; potency is the fitted concentration of half-maximal effect.
Structure (SMILES),Potency,"activity change, negative = inhibition"
Cc1nn(-c2ccc([N+](=O)[O-])cc2)c2c1C(c1ccc(OC(F)F)cc1)N1C(=N2)C(=O)Nc2ccccc21 (centres undefined),"inconclusive: 2.62 µM [inhibitor, full curve, poor fit]",
COc1ccccc1OCC(=O)Nc1ccc(N2CCCCC2)cc1,,inactive: 21.2%
C(=C\c1ccco1)/C1=NN(c2ccccc2)C(c2ccco2)C1 (centres undefined),"inconclusive: 10.4 µM [inhibitor, partial curve, poor fit]",
Clc1ccc(C2C3=C(Nc4ncnn42)c2ccccc2CC3)cc1 (centres undefined),"inconclusive: 18.5 µM [inhibitor, single point]",
CCOC(=O)CNC(=O)CSc1nnc(NC(=O)c2ccc3c(c2)OCO3)s1,,inactive: 104%
CSc1ccccc1NC(=O)COc1nsnc1N1CCOCC1,"inconclusive: 18.5 µM [inhibitor, single point]",
Cc1cc(C(=O)COc2ncnc3sccc23)c(C)n1C,,inactive: 30%
Cn1c(=O)[nH]c(=O)c2c1nc(N1CCCCC1)n2C/C=N/NC(=O)c1cc(Br)ccc1O,"inconclusive: 5.86 µM [inhibitor, partial curve, poor fit]",
CCOc1ccc(/C=N/Nc2ccc(Cl)nn2)c(O)c1,"inconclusive: 7.38 µM [inhibitor, partial curve]",
Cc1ccccc1CSCC(=O)N/N=C/c1cccs1,"inconclusive: 0.0465 µM [inhibitor, full curve, poor fit]",
Oc1cccc(Nc2ncnc3ccccc23)c1,,inactive: 10.7%
O=S(=O)(NC1=NCCCCC1)c1ccc(Cl)cc1Cl,"inconclusive: 0.657 µM [inhibitor, full curve, poor fit]",
Cc1c(O)c2c(=O)n(-c3ccccc3)c(-c3ccccc3)cc2oc1=O,"inconclusive: 6.57 µM [inhibitor, partial curve]",
Cc1ccccc1-c1nc(-c2cccnc2)no1,"inconclusive: 9.28 µM [inhibitor, single point]",
COc1cc(/C=N/NC(=O)c2ccncc2)cc2c1OCO2,"inconclusive: 10.4 µM [inhibitor, partial curve]",
NNC(=S)Nc1ccc(S(=O)(=O)N2CCOCC2)cc1,"inconclusive: 13.1 µM [inhibitor, partial curve]",
Cc1ccc(C(=O)N2CCN(S(C)(=O)=O)C2)cc1,,inactive: 2.7% [at 5.75 µM]
OCCN(CCO)c1ccc2ccccc2c1,,inactive: 175%
COc1ccc(-c2c(C)nn3c(N)c(-c4ccccc4)cnc23)cc1OC,,inactive: -12.4%
COc1ccc(C2CC(=O)C(C=NCCN3CCOCC3)=C(O)C2)cc1 (centres undefined),,inactive: 88.2%
CN1CCCC(OC(=O)c2cc(Cl)cc(Cl)c2)C1 (centres undefined),,inactive: 16.4%
COc1ccc(C2=NO[C@@H]3C(=O)N(C4CCCCC4)C(=O)[C@H]23)cc1OC,"inconclusive: 18.5 µM [inhibitor, single point]",
CCOC(=O)C1(Cc2cccc(OC)c2)CCN(Cc2cccn2-c2ccccn2)CC1,"inconclusive: 9.28 µM [inhibitor, partial curve]",
O=C(Nc1ccc(Cl)cn1)c1cnn2cccnc12,"inconclusive: 0.928 µM [inhibitor, partial curve, poor fit]",
COc1cccc(N2CCN(C(=O)c3ccc(CS(=O)c4ccc(C)cc4)o3)CC2)c1 (centres undefined),"inconclusive: 9.28 µM [inhibitor, partial curve, poor fit]",

# Exported with bars between the fields: entries from further up
Structure (SMILES) | Potency | activity change, negative = inhibition
CCOc1ccc(/C=N/Nc2ccc(Cl)nn2)c(O)c1 | inconclusive: 7.38 µM [inhibitor, partial curve] | 
Cc1ccccc1CSCC(=O)N/N=C/c1cccs1 | inconclusive: 0.0465 µM [inhibitor, full curve, poor fit] | 
Oc1cccc(Nc2ncnc3ccccc23)c1 |  | inactive: 10.7%
O=S(=O)(NC1=NCCCCC1)c1ccc(Cl)cc1Cl | inconclusive: 0.657 µM [inhibitor, full curve, poor fit] | 
Cc1c(O)c2c(=O)n(-c3ccccc3)c(-c3ccccc3)cc2oc1=O | inconclusive: 6.57 µM [inhibitor, partial curve] | 
Cc1ccccc1-c1nc(-c2cccnc2)no1 | inconclusive: 9.28 µM [inhibitor, single point] | 

# Continuation.

Structure (SMILES),Potency,"activity change, negative = inhibition"
OC1COC(OCc2ccccc2)C(O)C1O (centres undefined),"inconclusive: 11.7 µM [inhibitor, single point]",
CCOc1cc(/C=C2/C(=O)ON=C2C)cc(Br)c1O,,inactive: -2.29%
Cc1cc2nc3c(nc2cc1C)C(O)=C3O,,inactive: 27.3%
CCOc1ccc(NC(=O)c2ccccc2O)cc1,"inconclusive: 4.65 µM [inhibitor, partial curve, poor fit]",
Cc1nn(C)c(C)c1S(=O)(=O)N1CCC(C(=O)NC2CCCc3ccccc32)CC1 (centres undefined),"inconclusive: 2.08 µM [inhibitor, partial curve, poor fit]",
O=C(NCCc1ccccc1)c1nnc(CS(=O)(=O)c2ccccc2)o1,"inconclusive: 5.22 µM [inhibitor, partial curve, poor fit]",
Cc1ccccc1NC(=O)CN1C(=O)N/C(=C\c2ccccc2OCc2ccc(C(=O)O)cc2)C1=O,,inactive: 19.5%
COc1ccc(CCC(C)NCc2cccc(Br)c2)cc1 (centres undefined),active: 8.28 µM,
Cc1ccc(-c2nnc(-n3nc(C)cc3C)c3ccccc23)cc1,,inactive: -67.5%
O=C(CN1CCN(S(=O)(=O)c2ccccc2)CC1)Nc1ccc([N+](=O)[O-])cc1,"inconclusive: 5.86 µM [inhibitor, partial curve, poor fit]",
CCc1cccc2sc(N(CCCN3CCOCC3)C(=O)CS(=O)(=O)c3ccccc3)nc12,"inconclusive: 13.1 µM [inhibitor, single point]",
Brc1ccc(OCCCCN2CCCCC2)cc1,active: 5.22 µM,
COc1cc2c(cc1OC)-c1c(OC)c(OC)cc3ccnc(c13)C2=O,"inconclusive: 18.5 µM [inhibitor, single point]",
COc1ccc(OC)c(S(=O)(=O)N2c3cc(F)ccc3CCC2C)c1 (centres undefined),"inconclusive: 18.5 µM [inhibitor, partial curve, poor fit]",
COCCCNC(=O)Cn1c(=O)n(CCCCCC(=O)Nc2ccccc2)c(=O)c2sccc21,"inconclusive: 0.0828 µM [inhibitor, full curve, poor fit]",
Cc1ccccc1OC/C(O)=C(\C#N)c1nc2ccccc2[nH]1,"inconclusive: 0.0657 µM [inhibitor, full curve, poor fit]",
C=C(C)c1cccc(C(C)(C)NC(=O)Nc2cccnc2)c1,active: 4.65 µM,
COc1ccc(N2CC(C(=O)NCCc3ccc(Cl)cc3)CC2=O)c(OC)c1 (centres undefined),,inactive: 11.4%
COCC(=O)OCC(=O)Nc1ccc(Cl)cc1[N+](=O)[O-],,inactive: 14.4%
Cc1csc2nc(CNC(=O)C3CC=CCC3C(=O)O)cn12 (centres undefined),,inactive: 7.58%
CCOc1ccccc1NC(=O)CSc1nc2cc(O)ccc2c(=O)n1-c1ccc(OC)c(OC)c1,"inconclusive: 9.28 µM [inhibitor, single point]",
COc1ccc(-n2nnc3c(SCC(=O)c4ccccc4)ncnc32)cc1,active: 1.85 µM,
COc1ccc(C(=O)Oc2cc(N)n(S(=O)(=O)c3ccc(C)cc3)n2)cc1,"inconclusive: 18.5 µM [inhibitor, single point]",
O=C(Cc1ccc([N+](=O)[O-])cc1)N1CCCc2ccccc21,"inconclusive: 2.94 µM [inhibitor, partial curve, poor fit]",
COC(=O)c1sc(NC(=O)/C=C/c2ccccc2Cl)nc1C,"inconclusive: 18.5 µM [inhibitor, single point]",

Structure (SMILES),Potency,"activity change, negative = inhibition"
CCOC(=O)c1sc(N2C(=O)C(O)=C(C(=O)c3ccco3)C2c2cccc([N+](=O)[O-])c2)nc1C (centres undefined),,inactive: 8.84%
C/C(=N\OC(=O)c1ccccc1)c1cc(-c2ccc(Cl)cc2)no1,,inactive: 240%
COc1ccc(/C=C/C(=O)NCCNC(=O)c2ccccc2)cc1OC,,inactive: -11.8%
O=C(COC(=O)/C=C/c1cccc(C(F)(F)F)c1)NCc1ccc(F)cc1,,inactive: 44%
N#Cc1cc(O)c(-n2nnc3ccccc32)cc1C#N,,inactive: -27.3%
CN(C)CCCn1c(=S)[nH]c2sc3c(c2c1=O)CCCC3,"inconclusive: 10.4 µM [inhibitor, single point]",
Cn1c(=O)c2c(ncn2CC(=O)N/N=C/C(Cl)=C/c2ccccc2)n(C)c1=O,,inactive: 43%
CC(NC(=O)Cn1cc(C(F)(F)F)cc(Cl)c1=O)c1ccccc1 (centres undefined),"inconclusive: 18.5 µM [inhibitor, single point]",
Cc1cc(C)n(-c2ccc(C(=O)Nc3ccc(C)c(S(=O)(=O)N(C)C)c3)cc2)n1,active: 11.7 µM,
Cc1ccc(NC(=O)C(c2ccccc2)N2CCN(CC(=O)NC3CC3)CC2)cc1 (centres undefined),"inconclusive: 8.28 µM [inhibitor, partial curve, poor fit]",
Cc1ccc(S(=O)(=O)CCC(=O)Nc2ccc3nc(C)sc3c2)cc1,,inactive: -6.2%
NS(=O)(=O)c1ccc(NC(=O)c2ccc(Cl)c(S(=O)(=O)NCc3ccco3)c2)cc1,"inconclusive: 18.5 µM [inhibitor, single point]",
COc1cccc(C(=O)Nc2ccc(Cl)c(C(F)(F)F)c2)c1,"inconclusive: 6.57 µM [inhibitor, partial curve]",
COc1cccc(C2CC(=O)N3CN(c4cccc(Cl)c4C)CSC3=C2C#N)c1OC (centres undefined),active: 0.928 µM,
O=C(O)c1c2c(nc3ccc(F)cc13)CCC2,,inactive: 52.9%
C#CCNC(=O)C1=C[C@H](c2ccc(Br)cc2)[C@@H](CCCO)[C@H](OCC)O1,,inactive: -29%
CCOC(=O)c1cn(CC)c2ccc(Br)cc2c1=O,active: 11.7 µM,
CCOc1ccccc1NC(=O)CSc1ccc(-c2sc(C)nc2C)nn1,active: 10.4 µM,
O=C1/C(=C/c2cccnc2)CCc2c1[nH]c1ccccc21,"inconclusive: 13.1 µM [inhibitor, single point]",
S=C(Nc1ccccn1)NC1CCCCC1,"inconclusive: 3.29 µM [inhibitor, partial curve]",
Cc1cccc(-n2c(SCC(=O)N3CC(=O)Nc4ccccc43)nc3ccccc3c2=O)c1,"inconclusive: 11.7 µM [inhibitor, single point]",
CCOC(=O)c1ccccc1NC(=O)CSc1ccc(-c2cccnc2)nn1,"inconclusive: 18.5 µM [inhibitor, single point]",
COc1ccc2[nH]c3c(c2c1)CN(C)CC3,,inactive: 20.3%
COc1ccc(-c2oc3ccccc3c(=O)c2OCC(=O)O)cc1,"inconclusive: 0.0041 µM [inhibitor, full curve, poor fit]",
